From the supplement of paper PMC10849652
The list shows a part of the results.

The chains behind the UniProt entries cited, without tags or fusion partners. Where a name states a change or a piece, a line headed by the entry shows the natural chain unless it says otherwise.
UniProt O00170: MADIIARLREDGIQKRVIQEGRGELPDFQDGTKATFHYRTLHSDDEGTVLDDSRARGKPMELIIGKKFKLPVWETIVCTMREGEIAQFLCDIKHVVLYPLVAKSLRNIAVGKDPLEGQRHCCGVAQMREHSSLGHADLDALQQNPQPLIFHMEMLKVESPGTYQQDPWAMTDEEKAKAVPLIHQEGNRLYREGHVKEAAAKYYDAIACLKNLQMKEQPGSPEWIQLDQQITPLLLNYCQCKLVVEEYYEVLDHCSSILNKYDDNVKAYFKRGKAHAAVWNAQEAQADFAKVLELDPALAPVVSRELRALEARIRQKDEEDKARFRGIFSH
UniProt Q6ULP2: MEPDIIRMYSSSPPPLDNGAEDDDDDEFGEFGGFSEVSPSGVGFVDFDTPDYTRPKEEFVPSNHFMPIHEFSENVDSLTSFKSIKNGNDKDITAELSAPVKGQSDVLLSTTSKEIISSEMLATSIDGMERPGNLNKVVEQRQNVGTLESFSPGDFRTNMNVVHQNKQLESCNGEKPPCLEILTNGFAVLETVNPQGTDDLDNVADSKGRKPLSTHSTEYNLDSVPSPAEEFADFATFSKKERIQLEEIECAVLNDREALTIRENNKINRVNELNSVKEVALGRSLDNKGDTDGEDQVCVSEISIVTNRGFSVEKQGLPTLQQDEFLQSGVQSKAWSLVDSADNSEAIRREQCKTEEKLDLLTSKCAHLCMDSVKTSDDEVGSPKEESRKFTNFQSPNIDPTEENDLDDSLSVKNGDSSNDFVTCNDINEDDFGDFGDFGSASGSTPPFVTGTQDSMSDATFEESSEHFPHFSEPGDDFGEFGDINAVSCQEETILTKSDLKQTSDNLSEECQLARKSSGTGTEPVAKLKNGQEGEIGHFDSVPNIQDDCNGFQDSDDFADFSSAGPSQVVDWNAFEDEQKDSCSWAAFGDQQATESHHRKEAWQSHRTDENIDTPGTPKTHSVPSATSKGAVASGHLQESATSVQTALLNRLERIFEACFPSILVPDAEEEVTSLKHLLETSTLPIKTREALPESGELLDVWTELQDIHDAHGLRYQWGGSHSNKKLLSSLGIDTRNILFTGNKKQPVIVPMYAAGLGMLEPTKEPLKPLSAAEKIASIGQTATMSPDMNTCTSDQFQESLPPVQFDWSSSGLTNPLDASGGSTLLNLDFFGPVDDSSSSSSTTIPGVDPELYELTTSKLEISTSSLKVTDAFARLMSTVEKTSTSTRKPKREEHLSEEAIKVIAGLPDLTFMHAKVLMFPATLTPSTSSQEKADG
UniProt Q9UNA0: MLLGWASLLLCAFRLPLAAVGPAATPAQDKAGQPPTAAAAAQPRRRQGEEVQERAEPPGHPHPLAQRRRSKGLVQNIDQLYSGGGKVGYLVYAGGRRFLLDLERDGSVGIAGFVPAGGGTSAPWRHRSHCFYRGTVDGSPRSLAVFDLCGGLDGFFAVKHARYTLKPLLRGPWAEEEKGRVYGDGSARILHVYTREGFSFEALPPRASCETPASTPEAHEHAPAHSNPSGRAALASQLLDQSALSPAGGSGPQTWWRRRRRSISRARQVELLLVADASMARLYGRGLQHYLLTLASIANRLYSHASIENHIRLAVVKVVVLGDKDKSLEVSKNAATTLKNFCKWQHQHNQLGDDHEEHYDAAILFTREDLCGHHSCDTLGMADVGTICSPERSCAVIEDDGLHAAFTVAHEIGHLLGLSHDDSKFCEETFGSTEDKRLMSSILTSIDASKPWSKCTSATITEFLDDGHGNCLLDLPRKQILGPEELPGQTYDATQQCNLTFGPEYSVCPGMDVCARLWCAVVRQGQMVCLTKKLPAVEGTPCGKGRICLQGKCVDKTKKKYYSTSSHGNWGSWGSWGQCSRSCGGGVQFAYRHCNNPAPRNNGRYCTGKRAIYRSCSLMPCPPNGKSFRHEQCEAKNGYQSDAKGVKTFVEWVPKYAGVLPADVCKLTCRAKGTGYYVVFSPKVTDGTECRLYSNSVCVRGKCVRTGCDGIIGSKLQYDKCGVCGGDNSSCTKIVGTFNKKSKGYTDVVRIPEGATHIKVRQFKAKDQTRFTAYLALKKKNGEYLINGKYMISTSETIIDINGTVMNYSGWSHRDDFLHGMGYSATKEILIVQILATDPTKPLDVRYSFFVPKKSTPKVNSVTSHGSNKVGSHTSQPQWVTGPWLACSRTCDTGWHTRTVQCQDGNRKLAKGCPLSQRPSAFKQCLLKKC
UniProt Q9H9F9, whole entry, looked up: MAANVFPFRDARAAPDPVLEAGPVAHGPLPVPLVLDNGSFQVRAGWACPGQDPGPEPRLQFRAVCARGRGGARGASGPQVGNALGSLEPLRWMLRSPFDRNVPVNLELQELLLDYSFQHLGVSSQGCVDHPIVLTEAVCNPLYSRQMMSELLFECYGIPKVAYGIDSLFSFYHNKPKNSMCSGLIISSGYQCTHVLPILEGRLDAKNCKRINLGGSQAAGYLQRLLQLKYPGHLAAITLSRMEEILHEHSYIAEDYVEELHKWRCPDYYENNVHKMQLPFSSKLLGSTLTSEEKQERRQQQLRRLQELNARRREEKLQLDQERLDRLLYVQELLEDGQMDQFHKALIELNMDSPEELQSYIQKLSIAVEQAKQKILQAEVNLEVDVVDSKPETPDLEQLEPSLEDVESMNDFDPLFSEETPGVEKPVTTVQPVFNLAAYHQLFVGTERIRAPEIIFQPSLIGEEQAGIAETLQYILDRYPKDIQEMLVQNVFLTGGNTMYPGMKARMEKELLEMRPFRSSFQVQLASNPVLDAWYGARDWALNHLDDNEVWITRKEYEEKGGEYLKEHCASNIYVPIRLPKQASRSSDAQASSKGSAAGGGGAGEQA
UniProt P11117: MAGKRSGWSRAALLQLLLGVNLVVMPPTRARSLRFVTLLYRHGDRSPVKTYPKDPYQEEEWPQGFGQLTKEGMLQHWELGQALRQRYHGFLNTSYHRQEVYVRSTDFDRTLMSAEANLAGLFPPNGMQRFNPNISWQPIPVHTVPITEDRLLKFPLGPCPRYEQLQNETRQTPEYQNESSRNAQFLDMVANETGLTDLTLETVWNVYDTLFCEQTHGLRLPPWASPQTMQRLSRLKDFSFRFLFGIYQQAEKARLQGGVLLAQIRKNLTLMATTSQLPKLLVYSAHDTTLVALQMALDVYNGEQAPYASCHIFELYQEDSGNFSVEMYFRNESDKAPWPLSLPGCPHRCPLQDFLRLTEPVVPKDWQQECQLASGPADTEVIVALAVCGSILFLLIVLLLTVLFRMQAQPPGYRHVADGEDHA
UniProt Q02952: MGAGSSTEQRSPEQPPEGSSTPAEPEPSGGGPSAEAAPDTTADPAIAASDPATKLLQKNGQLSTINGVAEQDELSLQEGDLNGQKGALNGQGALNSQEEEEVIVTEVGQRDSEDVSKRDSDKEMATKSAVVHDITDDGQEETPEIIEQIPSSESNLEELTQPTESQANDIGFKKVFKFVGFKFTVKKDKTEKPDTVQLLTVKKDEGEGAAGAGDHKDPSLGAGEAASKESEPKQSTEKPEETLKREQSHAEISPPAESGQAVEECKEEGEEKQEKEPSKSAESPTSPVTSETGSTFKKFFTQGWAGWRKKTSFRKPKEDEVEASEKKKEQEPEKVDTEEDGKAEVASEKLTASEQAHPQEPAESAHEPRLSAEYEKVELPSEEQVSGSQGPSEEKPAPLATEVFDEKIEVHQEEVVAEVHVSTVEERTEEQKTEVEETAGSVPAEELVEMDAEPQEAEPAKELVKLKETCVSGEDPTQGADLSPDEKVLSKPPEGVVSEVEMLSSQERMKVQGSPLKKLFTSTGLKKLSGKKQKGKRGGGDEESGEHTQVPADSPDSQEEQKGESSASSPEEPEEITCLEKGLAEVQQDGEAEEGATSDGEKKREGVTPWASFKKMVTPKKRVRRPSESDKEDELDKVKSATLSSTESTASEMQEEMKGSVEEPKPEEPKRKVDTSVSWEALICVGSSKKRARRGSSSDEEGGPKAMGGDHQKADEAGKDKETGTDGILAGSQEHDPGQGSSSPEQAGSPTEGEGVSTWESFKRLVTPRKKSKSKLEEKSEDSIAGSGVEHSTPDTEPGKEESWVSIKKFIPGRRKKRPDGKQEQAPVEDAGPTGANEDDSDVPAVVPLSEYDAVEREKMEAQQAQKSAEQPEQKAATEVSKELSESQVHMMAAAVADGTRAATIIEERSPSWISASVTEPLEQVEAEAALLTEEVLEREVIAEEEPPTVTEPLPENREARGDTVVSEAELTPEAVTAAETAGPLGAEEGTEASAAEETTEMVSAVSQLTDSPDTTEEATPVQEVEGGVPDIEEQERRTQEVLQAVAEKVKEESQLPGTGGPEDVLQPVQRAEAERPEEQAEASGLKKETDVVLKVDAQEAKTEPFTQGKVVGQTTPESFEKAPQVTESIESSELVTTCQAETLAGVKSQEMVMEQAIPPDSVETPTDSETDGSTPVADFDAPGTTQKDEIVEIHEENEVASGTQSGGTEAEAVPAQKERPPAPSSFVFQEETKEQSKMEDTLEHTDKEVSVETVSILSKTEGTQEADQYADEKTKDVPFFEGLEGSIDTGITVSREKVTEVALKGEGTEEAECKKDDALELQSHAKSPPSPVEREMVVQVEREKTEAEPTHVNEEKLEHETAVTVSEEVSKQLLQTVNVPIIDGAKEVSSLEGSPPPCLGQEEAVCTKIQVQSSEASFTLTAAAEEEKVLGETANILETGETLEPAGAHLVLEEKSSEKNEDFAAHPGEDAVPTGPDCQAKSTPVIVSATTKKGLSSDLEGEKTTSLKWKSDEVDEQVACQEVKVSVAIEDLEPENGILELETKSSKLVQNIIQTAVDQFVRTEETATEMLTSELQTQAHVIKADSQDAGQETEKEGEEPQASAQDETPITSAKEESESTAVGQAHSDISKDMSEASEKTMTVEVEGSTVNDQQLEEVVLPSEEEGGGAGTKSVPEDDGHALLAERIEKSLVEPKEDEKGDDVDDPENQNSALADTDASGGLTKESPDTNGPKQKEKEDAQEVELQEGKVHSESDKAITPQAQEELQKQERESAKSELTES
UniProt Q53H80, whole entry, looked up: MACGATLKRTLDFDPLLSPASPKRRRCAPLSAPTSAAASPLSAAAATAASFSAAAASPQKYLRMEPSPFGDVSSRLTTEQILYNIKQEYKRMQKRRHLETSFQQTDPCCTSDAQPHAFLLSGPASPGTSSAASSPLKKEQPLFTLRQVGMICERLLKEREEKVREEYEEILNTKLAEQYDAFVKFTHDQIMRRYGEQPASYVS
UniProt Q6RW13: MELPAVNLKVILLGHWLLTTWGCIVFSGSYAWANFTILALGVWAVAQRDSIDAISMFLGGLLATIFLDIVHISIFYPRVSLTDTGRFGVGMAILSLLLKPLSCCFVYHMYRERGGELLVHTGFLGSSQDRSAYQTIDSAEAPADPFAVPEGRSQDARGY
UniProt Q96P47: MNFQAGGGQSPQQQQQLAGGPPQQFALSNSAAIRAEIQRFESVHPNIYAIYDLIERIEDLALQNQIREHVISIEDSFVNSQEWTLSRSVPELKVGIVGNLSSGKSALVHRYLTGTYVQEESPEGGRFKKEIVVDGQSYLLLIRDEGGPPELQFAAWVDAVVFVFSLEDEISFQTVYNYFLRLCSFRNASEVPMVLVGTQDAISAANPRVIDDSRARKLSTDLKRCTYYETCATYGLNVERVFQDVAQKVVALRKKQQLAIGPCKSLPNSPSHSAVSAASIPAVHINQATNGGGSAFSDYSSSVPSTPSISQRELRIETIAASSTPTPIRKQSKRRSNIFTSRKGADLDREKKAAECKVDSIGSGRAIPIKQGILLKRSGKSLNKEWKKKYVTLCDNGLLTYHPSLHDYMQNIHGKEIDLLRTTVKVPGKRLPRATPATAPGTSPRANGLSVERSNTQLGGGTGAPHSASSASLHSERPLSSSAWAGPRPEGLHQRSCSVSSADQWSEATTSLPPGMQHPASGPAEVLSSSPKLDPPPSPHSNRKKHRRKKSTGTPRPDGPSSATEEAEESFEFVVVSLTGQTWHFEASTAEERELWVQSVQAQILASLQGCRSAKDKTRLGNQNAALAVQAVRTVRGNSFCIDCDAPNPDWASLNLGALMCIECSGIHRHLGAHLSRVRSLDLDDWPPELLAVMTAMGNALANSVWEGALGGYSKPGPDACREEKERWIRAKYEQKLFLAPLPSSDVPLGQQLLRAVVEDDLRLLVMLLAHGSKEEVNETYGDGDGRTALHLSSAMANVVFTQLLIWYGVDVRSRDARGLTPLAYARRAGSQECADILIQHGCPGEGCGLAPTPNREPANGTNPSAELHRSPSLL
UniProt Q13155: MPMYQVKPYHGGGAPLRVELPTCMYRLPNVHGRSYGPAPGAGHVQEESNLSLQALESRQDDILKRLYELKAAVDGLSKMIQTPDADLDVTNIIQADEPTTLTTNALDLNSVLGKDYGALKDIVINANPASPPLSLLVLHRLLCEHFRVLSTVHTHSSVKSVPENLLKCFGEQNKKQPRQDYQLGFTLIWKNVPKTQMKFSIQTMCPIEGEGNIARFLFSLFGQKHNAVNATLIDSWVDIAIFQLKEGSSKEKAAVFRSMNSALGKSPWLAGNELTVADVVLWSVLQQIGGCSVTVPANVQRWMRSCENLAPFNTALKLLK

Key:
Assay in all cases: log2 fold change, soluble protein after heating vs DMSO (PISA); higher = thermal stabilisation; K562 lysate, 10 uM; active = over 0.2 and 3.5 SD of the protein, either way, in both replicates (recomputed)
[1] = compound: NCC(=O)Nc1ccc(-n2nc(C(F)(F)F)cc2-c2ccc3c(ccc4ccccc43)c2)cc1
Summary of the method: (§1)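 To prepare the extract, K562 pellets were dounce-homogenised in PBS pH 7.4 with 1 mM MgCl2, giving crude material at 1 mg/mL protein. This was treated with 10 μM compound for 30 min, then heated in aliquots for 3 min over 48°C-58°C before pooling and addition of NP-40 to 0.5% at 4°C. Centrifugation at 21,000xg for 90 min left soluble protein in the supernatant, which TMTpro 16plex LC-MS/MS quantified with equalised channel sums. Results are log-two fold changes in thermal stability compared with solvent controls, from duplicates.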

vorinostat = compound: O=C(CCCCCCC(=O)Nc1ccccc1)NO [vorinostat]
Summary of the method: as §1

silmitasertib = compound: O=C(O)c1ccc2c(c1)nc(Nc1cccc(Cl)c1)c1ccncc12 [silmitasertib]
Summary of the method: as §1

[2] = compound: O=C1NC(=O)C(c2cnc3ccccn23)=C1c1cn2c3c(cc(F)cc13)CN(C(=O)N1CCCCC1)CC2
Summary of the method: as §1

entospletinib = compound: c1cn2cc(-c3ccc4cn[nH]c4c3)nc(Nc3ccc(N4CCOCC4)cc3)c2n1 [entospletinib]
Summary of the method: as §1

Target	log2 fold change [1]	log2 fold change (vorinostat)	log2 fold change (silmitasertib)	log2 fold change [2]	log2 fold change (entospletinib)
ACTB, A0A2R8YGF8	inactive: 0.197	–	–	–	–
ACSM3 (UniProt Q53FZ2)	inactive: 0.009	inactive: 0.041	inactive: -0.021	inactive: -0.026	inactive: -0.029
ACYP2 (UniProt P14621)	inactive: 0.066	inactive: 0.147	inactive: -0.081	inactive: 0.012	–
AGAP1 (UniProt Q9UPQ3)	inactive: -0.171	inactive: -0.246	inactive: 0.007	inactive: 0.014	–
ACSL3 (UniProt O95573)	inactive: 0.016	inactive: -0.129	inactive: 0.114	inactive: 0.016	inactive: 0.023
ADPRHL2 (UniProt Q9NX46)	inactive: 0.013	inactive: 0.012	inactive: 0.005	inactive: 0.039	inactive: -0.005
AIP (UniProt O00170)	inactive: -0.001	inactive: -0.061	inactive: -0.032	inactive: 0.003	inactive: -0.003
AGO1 (UniProt Q9UL18)	inactive: 0.031	inactive: 0.08	inactive: -0.058	inactive: 0.003	inactive: -0.06
AK4 (UniProt P27144)	inactive: -0.051	inactive: 0.037	inactive: -0.008	inactive: -0.016	inactive: -0.02
ADRM1 (UniProt Q16186)	inactive: 0.051	active: -0.231	inactive: -0.027	inactive: -0.04	inactive: -0.002
AKR1A1 (UniProt P14550)	inactive: 0.029	inactive: 0.004	inactive: 0.011	inactive: 0.002	inactive: 0.011
AFTPH isoform 9 (UniProt Q6ULP2)	inactive: 0.017	inactive: -0.031	inactive: 0.018	inactive: -0.008	inactive: 0
AGL (UniProt P35573)	inactive: 0	active: -0.275	inactive: 0.035	inactive: 0.001	inactive: -0.018
AIF1 (UniProt P55008)	inactive: -0.033	inactive: -0.16	inactive: -0.009	inactive: 0.017	–
ADAMTS5 (UniProt Q9UNA0)	inactive: 0.137	inactive: 0.028	inactive: -0.065	inactive: 0.062	inactive: -0.125
ACTG1 (UniProt I3L4N8)	inactive: -0.131	inactive: 0.358	inactive: -0.043	inactive: 0.082	inactive: 0.098
ACTR1B (UniProt P42025)	inactive: 0.004	inactive: 0.079	inactive: -0.01	inactive: -0.07	inactive: 0.02
ACSS2 isoform 2 (UniProt Q9NR19)	inactive: -0.046	inactive: -0.215	inactive: 0.019	inactive: -0.01	inactive: -0.025
ACVR2B (UniProt Q13705)	inactive: 0.212	inactive: -0.027	inactive: 0.062	–	–

An excerpt of these results, as a markdown table.

| Target | log2 fold change [1] | log2 fold change (vorinostat) | log2 fold change (silmitasertib) | log2 fold change [2] | log2 fold change (entospletinib) |
| --- | --- | --- | --- | --- | --- |
| AGL (UniProt P35573) | inactive: 0 | active: -0.275 | inactive: 0.035 | inactive: 0.001 | inactive: -0.018 |
| AIF1 (UniProt P55008) | inactive: -0.033 | inactive: -0.16 | inactive: -0.009 | inactive: 0.017 | – |
| ADAMTS5 (UniProt Q9UNA0) | inactive: 0.137 | inactive: 0.028 | inactive: -0.065 | inactive: 0.062 | inactive: -0.125 |

Next part

Target	log2 fold change [1]	log2 fold change (vorinostat)	log2 fold change (silmitasertib)	log2 fold change [2]	log2 fold change (entospletinib)
ADAM10 (UniProt O14672)	inactive: 0.065	inactive: 0.069	inactive: 0.002	inactive: -0.005	inactive: 0.011
AK2 (UniProt P54819)	inactive: 0.024	inactive: 0.159	inactive: 0.007	inactive: -0.005	inactive: 0.012
AHSA1 (UniProt O95433)	inactive: 0.011	inactive: 0.059	inactive: -0.012	inactive: -0.009	inactive: 0.013
AKNA (UniProt Q7Z591)	inactive: 0.033	inactive: -0.033	inactive: 0.041	inactive: -0.022	inactive: -0.024
ADPRH (UniProt P54922)	inactive: -0.376	inactive: -0.038	inactive: -0.014	inactive: 0.019	inactive: -0.028
ACTR5 (UniProt Q9H9F9)	inactive: 0.002	inactive: -0.032	inactive: -0.174	inactive: -0.055	inactive: -0.124
AKR7A2 (UniProt O43488)	inactive: 0.011	inactive: -0.089	inactive: 0.016	inactive: -0.039	inactive: 0.029
AGPAT5 (UniProt Q9NUQ2)	inactive: -0.09	inactive: 0.007	inactive: 0.032	inactive: -0.026	inactive: 0.022
ACP2 (UniProt P11117)	inactive: -0.012	inactive: 0.085	inactive: 0.067	inactive: 0	inactive: -0.024
AKAP12 (UniProt Q02952)	inactive: 0.101	inactive: -0.068	inactive: 0.006	inactive: 0.007	inactive: -0.127
AFDN (UniProt A8MQ02)	inactive: -0.191	–	–	–	–
ACTR6 (UniProt Q9GZN1)	inactive: 0.013	inactive: 0.061	inactive: 0.03	inactive: -0.082	inactive: -0.014
AFF4 (UniProt Q9UHB7)	inactive: -0.119	inactive: 0.078	inactive: -0.04	inactive: -0.031	inactive: -0.088
ACTR10 (UniProt Q9NZ32)	inactive: 0	inactive: 0.013	inactive: -0.022	inactive: 0.017	inactive: -0.005
AIFM1 (UniProt O95831)	inactive: 0.011	inactive: 0.152	inactive: -0.007	inactive: -0.036	inactive: 0.007
AFG3L2 (UniProt Q9Y4W6)	inactive: -0.006	inactive: 0.126	inactive: 0.05	inactive: -0.049	inactive: -0.044
ACTB, A0A2R8YEA7	inactive: 0.203	–	–	–	–
AKIRIN2 (UniProt Q53H80)	inactive: 0.087	inactive: 0.135	inactive: -0.065	inactive: 0.036	inactive: 0.092
AKAP1 (UniProt Q92667)	inactive: 0.005	inactive: 0.015	inactive: 0.011	inactive: -0.019	inactive: -0.063

Target	log2 fold change [1]	log2 fold change (vorinostat)	log2 fold change (silmitasertib)	log2 fold change [2]	log2 fold change (entospletinib)
AGTRAP (UniProt Q6RW13)	inactive: -0.117	inactive: 0.069	inactive: -0.001	inactive: 0.021	inactive: 0.056
ADAM17 (UniProt P78536)	inactive: 0.014	inactive: 0.089	inactive: -0.006	inactive: 0.042	inactive: 0.014
AK6 (UniProt Q9Y3D8)	inactive: -0.018	inactive: -0.078	inactive: 0.001	inactive: -0.075	inactive: 0.011
ADD3 (UniProt Q9UEY8)	inactive: 0.008	inactive: 0.029	inactive: -0.04	inactive: -0.042	inactive: -0.024
AGAP3 isoform 4 (UniProt Q96P47)	inactive: 0.028	inactive: -0.203	inactive: -0.019	inactive: -0.001	inactive: -0.023
ACTA1 (UniProt P68133)	inactive: 0.031	inactive: -0.023	inactive: 0.005	inactive: 0.026	inactive: 0.017
AFP (UniProt P02771)	inactive: -0.065	inactive: -0.017	inactive: 0.057	inactive: -0.019	inactive: 0.026
AGPAT3 isoform 3 (UniProt Q9NRZ7)	inactive: -0.044	inactive: -0.21	inactive: 0.028	inactive: 0.015	inactive: -0.025
AGO2 (UniProt Q9UKV8)	inactive: 0.028	inactive: 0.044	inactive: -0.037	inactive: 0.016	inactive: -0.022
ACSL1 (UniProt P33121)	inactive: -0.092	active: -0.221	inactive: 0.138	inactive: -0.031	inactive: -0.027
AIMP2 (UniProt Q13155)	inactive: -0.046	active: -0.347	inactive: 0.048	inactive: 0.017	inactive: -0.017
AGPS (UniProt O00116)	inactive: -0.015	active: 0.365	inactive: -0.007	inactive: -0.007	inactive: -0.005
AKAP8 (UniProt O43823)	inactive: 0.047	inactive: -0.095	inactive: 0.019	inactive: 0.023	inactive: -0.046
AGTPBP1 (UniProt Q9UPW5)	inactive: 0.125	inactive: -0.033	inactive: -0.012	inactive: 0.11	inactive: 0.035
AKR1C3 (UniProt P42330)	inactive: -0.009	active: 0.546	inactive: 0.044	inactive: 0.009	inactive: 0.059
ADD2 (UniProt P35612)	inactive: -0.007	inactive: 0.082	inactive: -0.001	inactive: -0.016	inactive: 0
AGO4 (UniProt Q9HCK5)	inactive: -0.007	inactive: 0.09	inactive: -0.018	inactive: -0.006	inactive: -0.013
ADI1 (UniProt Q9BV57)	inactive: -0.043	inactive: 0.029	inactive: 0.008	inactive: -0.047	inactive: -0.027
